Reference: publication PMC5376188

Amino acid sequences for entries named in this document (tags omitted).
UniProt Q00944: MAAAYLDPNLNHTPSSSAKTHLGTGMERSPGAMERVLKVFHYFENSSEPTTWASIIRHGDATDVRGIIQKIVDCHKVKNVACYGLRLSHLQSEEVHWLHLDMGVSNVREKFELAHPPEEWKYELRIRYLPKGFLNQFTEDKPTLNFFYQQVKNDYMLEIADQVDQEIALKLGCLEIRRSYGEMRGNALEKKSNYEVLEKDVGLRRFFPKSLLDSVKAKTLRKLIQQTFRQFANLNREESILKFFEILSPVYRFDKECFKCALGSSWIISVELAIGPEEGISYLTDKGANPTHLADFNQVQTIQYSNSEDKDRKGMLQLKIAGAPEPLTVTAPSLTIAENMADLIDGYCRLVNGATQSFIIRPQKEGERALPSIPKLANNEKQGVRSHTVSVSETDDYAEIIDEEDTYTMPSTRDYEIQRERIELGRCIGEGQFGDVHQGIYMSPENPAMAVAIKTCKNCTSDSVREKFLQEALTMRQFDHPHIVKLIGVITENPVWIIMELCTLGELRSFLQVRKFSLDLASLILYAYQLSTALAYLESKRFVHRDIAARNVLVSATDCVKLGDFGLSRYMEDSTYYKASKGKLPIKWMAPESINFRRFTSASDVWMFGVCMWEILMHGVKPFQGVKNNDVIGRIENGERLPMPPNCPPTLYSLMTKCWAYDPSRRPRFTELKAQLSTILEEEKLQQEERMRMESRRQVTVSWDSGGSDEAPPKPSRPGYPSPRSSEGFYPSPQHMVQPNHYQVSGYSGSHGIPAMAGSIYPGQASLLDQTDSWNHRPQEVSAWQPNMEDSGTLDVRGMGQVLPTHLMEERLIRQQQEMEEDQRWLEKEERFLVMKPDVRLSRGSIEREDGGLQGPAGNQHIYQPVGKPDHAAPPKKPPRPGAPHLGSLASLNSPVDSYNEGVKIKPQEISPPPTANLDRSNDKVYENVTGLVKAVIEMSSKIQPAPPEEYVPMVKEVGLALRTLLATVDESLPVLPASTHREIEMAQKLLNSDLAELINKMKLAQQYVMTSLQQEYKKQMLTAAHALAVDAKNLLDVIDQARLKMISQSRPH
UniProt Q9CQW9: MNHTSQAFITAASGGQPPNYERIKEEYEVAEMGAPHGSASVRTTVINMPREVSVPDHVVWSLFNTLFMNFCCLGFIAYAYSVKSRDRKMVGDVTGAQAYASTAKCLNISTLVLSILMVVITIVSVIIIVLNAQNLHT
UniProt O08788: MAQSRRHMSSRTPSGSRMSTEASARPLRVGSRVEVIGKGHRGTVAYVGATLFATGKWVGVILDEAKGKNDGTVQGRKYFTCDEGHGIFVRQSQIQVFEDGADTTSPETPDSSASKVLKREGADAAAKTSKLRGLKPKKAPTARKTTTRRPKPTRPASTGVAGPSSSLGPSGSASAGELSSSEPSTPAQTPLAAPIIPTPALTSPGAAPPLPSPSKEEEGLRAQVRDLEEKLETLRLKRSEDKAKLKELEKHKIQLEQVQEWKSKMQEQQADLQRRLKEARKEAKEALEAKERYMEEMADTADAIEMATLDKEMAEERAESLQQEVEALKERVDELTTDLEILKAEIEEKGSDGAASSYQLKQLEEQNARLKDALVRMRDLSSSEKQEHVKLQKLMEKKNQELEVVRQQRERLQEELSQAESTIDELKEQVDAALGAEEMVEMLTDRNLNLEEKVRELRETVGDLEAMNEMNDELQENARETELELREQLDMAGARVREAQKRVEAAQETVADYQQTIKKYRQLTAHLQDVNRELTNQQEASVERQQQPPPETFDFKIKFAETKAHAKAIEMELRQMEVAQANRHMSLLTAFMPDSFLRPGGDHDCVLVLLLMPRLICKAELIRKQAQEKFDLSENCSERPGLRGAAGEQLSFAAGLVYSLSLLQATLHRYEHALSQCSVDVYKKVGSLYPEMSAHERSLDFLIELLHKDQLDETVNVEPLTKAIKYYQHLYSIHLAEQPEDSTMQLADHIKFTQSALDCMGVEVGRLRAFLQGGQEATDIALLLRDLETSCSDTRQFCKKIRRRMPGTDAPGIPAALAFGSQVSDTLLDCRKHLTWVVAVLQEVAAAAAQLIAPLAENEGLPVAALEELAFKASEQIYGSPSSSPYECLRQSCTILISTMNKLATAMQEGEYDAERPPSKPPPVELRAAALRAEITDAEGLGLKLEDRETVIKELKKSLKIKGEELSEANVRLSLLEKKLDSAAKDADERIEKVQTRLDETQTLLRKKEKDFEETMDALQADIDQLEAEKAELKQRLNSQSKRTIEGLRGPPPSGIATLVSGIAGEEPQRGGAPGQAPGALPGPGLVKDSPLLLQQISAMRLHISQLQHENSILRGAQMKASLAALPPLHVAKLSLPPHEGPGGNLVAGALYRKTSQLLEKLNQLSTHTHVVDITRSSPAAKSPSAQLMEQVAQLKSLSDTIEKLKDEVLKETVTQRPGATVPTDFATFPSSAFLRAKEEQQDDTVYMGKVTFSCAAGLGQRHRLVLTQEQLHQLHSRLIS

How the values were obtained:
[1] = biological target: T1, Ambra1 (activating molecule in Beclin1-regulated autophagy) (mouse (endogenous in SCC cells and MEFs)) (UniProt A2AH22); experiment: affinity purification with mass spectrometry; Ambra1, pSrc Y416, FAK and IgG control IPs from 2 mg RIPA lysates of SCC FAK-WT and FAK -/- cells in triplicate; on-bead digestion; quantitative label-free LC-MS/MS
T1 sequence: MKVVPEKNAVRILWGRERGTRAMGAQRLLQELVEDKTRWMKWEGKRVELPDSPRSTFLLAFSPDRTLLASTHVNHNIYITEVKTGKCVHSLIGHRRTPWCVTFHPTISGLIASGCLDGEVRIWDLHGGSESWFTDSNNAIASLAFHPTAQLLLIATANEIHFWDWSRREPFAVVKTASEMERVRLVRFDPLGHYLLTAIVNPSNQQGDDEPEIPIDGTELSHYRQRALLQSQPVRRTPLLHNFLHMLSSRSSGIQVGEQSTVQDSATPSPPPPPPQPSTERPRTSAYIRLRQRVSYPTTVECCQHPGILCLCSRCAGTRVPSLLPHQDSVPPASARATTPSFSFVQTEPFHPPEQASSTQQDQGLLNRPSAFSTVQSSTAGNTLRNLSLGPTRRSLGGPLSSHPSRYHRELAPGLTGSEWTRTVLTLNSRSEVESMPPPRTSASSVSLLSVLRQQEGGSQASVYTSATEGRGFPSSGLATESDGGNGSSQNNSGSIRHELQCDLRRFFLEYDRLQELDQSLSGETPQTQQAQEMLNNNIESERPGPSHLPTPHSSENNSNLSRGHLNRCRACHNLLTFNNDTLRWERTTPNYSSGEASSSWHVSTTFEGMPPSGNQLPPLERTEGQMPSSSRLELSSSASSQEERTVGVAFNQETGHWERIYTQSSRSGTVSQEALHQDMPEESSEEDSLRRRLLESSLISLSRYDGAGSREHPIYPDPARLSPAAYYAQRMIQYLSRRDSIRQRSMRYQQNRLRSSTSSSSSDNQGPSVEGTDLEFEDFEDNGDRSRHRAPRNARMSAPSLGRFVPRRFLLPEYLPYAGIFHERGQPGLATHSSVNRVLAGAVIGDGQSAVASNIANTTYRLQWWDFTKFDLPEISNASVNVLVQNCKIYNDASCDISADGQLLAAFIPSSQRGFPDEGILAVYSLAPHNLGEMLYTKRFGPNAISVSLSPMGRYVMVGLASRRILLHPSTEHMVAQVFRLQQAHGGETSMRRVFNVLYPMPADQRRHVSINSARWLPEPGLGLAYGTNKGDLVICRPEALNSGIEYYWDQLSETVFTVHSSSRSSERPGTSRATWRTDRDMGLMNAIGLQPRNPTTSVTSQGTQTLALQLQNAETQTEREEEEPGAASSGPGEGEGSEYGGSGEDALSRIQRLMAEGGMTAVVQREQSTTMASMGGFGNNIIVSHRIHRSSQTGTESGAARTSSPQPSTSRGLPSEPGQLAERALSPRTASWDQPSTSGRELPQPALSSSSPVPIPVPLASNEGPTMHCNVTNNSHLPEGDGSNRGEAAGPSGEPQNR

[2] = biological target: focal adhesion kinase (FAK), wild type, in SCC FAK-WT cells (UniProt Q00944); experiment: as above

| Substance | binding [1] | binding [2] |
| --- | --- | --- |
| interferon-induced transmembrane protein 3 (IFITM3) (from UniProt Q9CQW9 1-137) | binds | binds |
| Dynactin 1 (Dctn1; also known as p150Glued) (from UniProt O08788 1-1281) | binds | – |

No constants are given. Whether binding was seen depends on the method and setting. Binding seen in cells or lysates may run through a third protein. These calls come from enrichment with a bait or labelling near it, and not all partners need be listed.
